{"source": "PubChem BioAssay AID493246 (Drosophila RNAi Screening Center, 2011)", "aim": "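Genes fly cells need to grow and stay alive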 (primary screen)", "cells": "Drosophila Kc and S2R+ cells", "reagents": "long dsRNA against Drosophila genes", "read-out": "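Cell number per well after knock-down, printed as raw plate values; calls were based on per-plate z-scores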", "scale": "Kc cell number and S2R+ cell number: higher = more cells remaining", "active means": "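Active when the per-plate z-score of cell number is 3 or more in the direction of fewer cells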", "note": "In all, the deposit lists about 21,000 reagents; this is an unselected part of those with a known target gene and a result. Of all reagents, 429 (2%) were called active. 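Values are raw and not normalised between plates; calls rest on per-plate z-scores that were not deposited.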 A number with no mark means an inactive call. The record does not give: the amount of reagent, the time to read-out."}
{"Gene": "CG6962", "amplicon": "DRSC16153", "Kc cell number, rep 1": 1.30e6, "Kc cell number, rep 2": 1.40e6, "S2R+ cell number, rep 1": 7.90e5, "S2R+ cell number, rep 2": 9.25e5}
{"Gene": "spn-B", "amplicon": "DRSC17063", "Kc cell number, rep 1": 1.34e6, "Kc cell number, rep 2": 1.37e6, "S2R+ cell number, rep 1": 1.10e6, "S2R+ cell number, rep 2": 1.25e6}
{"Gene": "CG10680", "amplicon": "DRSC02093", "Kc cell number, rep 1": 1.56e6, "Kc cell number, rep 2": 1.69e6, "S2R+ cell number, rep 1": 1.21e6, "S2R+ cell number, rep 2": 3.10e5}
{"Gene": "dpr7", "amplicon": "DRSC17109", "Kc cell number, rep 1": 1.25e6, "Kc cell number, rep 2": 1.34e6, "S2R+ cell number, rep 1": 1.02e6, "S2R+ cell number, rep 2": 1.08e6}
{"Gene": "Cpr49Ag", "amplicon": "DRSC07203", "Kc cell number, rep 1": 1.51e6, "Kc cell number, rep 2": 1.57e6, "S2R+ cell number, rep 1": 1.26e6, "S2R+ cell number, rep 2": 1.31e6}
{"Gene": "PIG-G", "amplicon": "DRSC06823", "Kc cell number, rep 1": 1.44e6, "Kc cell number, rep 2": 1.43e6, "S2R+ cell number, rep 1": 1.26e6, "S2R+ cell number, rep 2": 1.19e6}
{"Gene": "CG31784", "amplicon": "DRSC01574", "Kc cell number, rep 1": 1.40e6, "Kc cell number, rep 2": 1.46e6, "S2R+ cell number, rep 1": 9.25e5, "S2R+ cell number, rep 2": 1.09e6}
{"Gene": "cu", "amplicon": "DRSC15643", "Kc cell number, rep 1": 1.69e6, "Kc cell number, rep 2": 1.57e6, "S2R+ cell number, rep 1": 1.36e6, "S2R+ cell number, rep 2": 1.51e6}
{"Gene": "cu", "amplicon": "DRSC15648", "Kc cell number, rep 1": 1.75e6, "Kc cell number, rep 2": 1.80e6, "S2R+ cell number, rep 1": 1.42e6, "S2R+ cell number, rep 2": 1.49e6}
{"Gene": "phu", "amplicon": "DRSC16390", "Kc cell number, rep 1": 1.54e6, "Kc cell number, rep 2": 1.53e6, "S2R+ cell number, rep 1": 1.22e6, "S2R+ cell number, rep 2": 1.34e6}
{"Gene": "CG30350", "amplicon": "DRSC07690", "Kc cell number, rep 1": 1.49e6, "Kc cell number, rep 2": 1.52e6, "S2R+ cell number, rep 1": 1.24e6, "S2R+ cell number, rep 2": 1.36e6}
{"Gene": "pix", "amplicon": "DRSC10533", "Kc cell number, rep 1": 1.36e6, "Kc cell number, rep 2": 1.51e6, "S2R+ cell number, rep 1": 8.67e5, "S2R+ cell number, rep 2": 9.72e5}
{"Gene": "mRpS29", "amplicon": "DRSC04398", "Kc cell number, rep 1": 1.26e6, "Kc cell number, rep 2": 1.34e6, "S2R+ cell number, rep 1": 9.69e5, "S2R+ cell number, rep 2": 1.07e6}
{"Gene": "Mad", "amplicon": "DRSC00759", "Kc cell number, rep 1": 1.55e6, "Kc cell number, rep 2": 1.51e6, "S2R+ cell number, rep 1": 1.13e6, "S2R+ cell number, rep 2": 1.31e6}

Just “S2R+ cell number, rep 2” (2 entries from above):
phu [DRSC16390]	1.34e6
CG30350 [DRSC07690]	1.36e6
